From PMC12707310
No constants are given. Whether binding was seen depends on the method and setting. In cells and extracts the contact can be indirect. Some binding calls cover weakened binding; strength is not graded here. Values belong to the molecule of their own block, whether it stands above or below them.

The chains behind the UniProt entries cited, without tags or fusion partners.
UniProt P51149: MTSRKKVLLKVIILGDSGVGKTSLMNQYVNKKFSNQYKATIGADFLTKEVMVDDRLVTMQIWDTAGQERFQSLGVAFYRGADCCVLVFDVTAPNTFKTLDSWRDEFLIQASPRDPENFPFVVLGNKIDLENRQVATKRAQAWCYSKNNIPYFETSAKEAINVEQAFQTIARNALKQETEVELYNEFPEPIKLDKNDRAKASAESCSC

What was measured:
[1] = target: T1, maspardin (SPG21), endogenously expressed in HeLa cells (human (endogenous in HeLa)) (UniProt Q9NZD8); experiment: co-IP; endogenous maspardin precipitated from HeLa lysate with an anti-maspardin antibody and protein A magnetic beads; lysis in 120 mM NaCl, 50 mM Tris-HCl pH 7.4, 0.05% NP40, 5 mM EDTA, 4°C; washes PBS Tween 0.05%; RAB7 detected by western blotting; SPG21 KO cells, beads alone and non-targeting IgG as controls
T1 sequence: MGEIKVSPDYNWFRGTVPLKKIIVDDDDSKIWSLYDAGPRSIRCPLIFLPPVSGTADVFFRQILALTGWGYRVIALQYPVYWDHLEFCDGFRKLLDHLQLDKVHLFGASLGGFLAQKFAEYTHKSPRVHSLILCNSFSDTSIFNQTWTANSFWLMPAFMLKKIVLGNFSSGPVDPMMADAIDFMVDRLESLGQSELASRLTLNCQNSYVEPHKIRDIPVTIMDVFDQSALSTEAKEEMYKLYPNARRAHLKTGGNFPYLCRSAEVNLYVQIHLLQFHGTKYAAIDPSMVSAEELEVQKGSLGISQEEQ

[2] = target: T1, maspardin (SPG21), endogenously expressed in HeLa cells (human (endogenous in HeLa)); experiment: co-IP; co-immunoprecipitation of maspardin with VPS35 or TBC1D5, under conditions showing maspardin's binding with RAB7; no figure; bait not told
mCherry-RAB7 WT [3] = target: mCherry-RAB7 WT (UniProt P51149); experiment: co-IP; WT mCherry-RAB7 expressed in control and SPG21 KO HeLa cells, cells pretreated with the cross-linker DSP (500 µM, 30 min, RT), lysed in 150 mM NaCl, 30 mM Tris-HCl pH 7.5, 0.5% NP40, 1 mM MgCl2; RFP-trap beads 1 h 30 at 4°C; endogenous CCZ1 or TBC1D5 detected by western blotting
mCherry-RAB7 WT [4] = target: mCherry-RAB7 WT (UniProt P51149); experiment: co-IP; mCherry-RAB7 (WT, CA, DN) expressed in control HeLa cells, cells pretreated with the cross-linker DSP (500 µM, 30 min, RT), lysed in 150 mM NaCl, 30 mM Tris-HCl pH 7.5, 0.5% NP40, 1 mM MgCl2; RFP-trap beads 1 h 30 at 4°C; wash buffer with 500 mM NaCl; endogenous maspardin detected by western blotting

binding [1]: binds
Molecule: RAB7 (Ras-related protein RAB7), endogenously expressed in HeLa cells (from UniProt P51149 1-207)

binding [2]: no binding
binding (mCherry-RAB7 WT [3]): binds
Molecule: TBC1D5, endogenously expressed in HeLa cells (from UniProt Q92609-1 1-795)

binding (mCherry-RAB7 WT [4]): binds
B1: maspardin (SPG21), endogenously expressed in HeLa cells (protein, UniProt Q9NZD8-1 1-308)
chain: T1 sequence
